# According to the supplement of paper PMC8728848:
# The list shows a part of the results.
# Tests used:
# Experiment in all cases: glycan array binding signal (z-score within array); higher = stronger binding
# Conditions in all cases: glycan notation: IUPAC condensed, linker removed
# [1] = biological target: Gal(a1-3)Gal(b1-3)GlcNAc(b1-2)Man
# How it was run: (§1)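 The binding signal is a Z-score computed within each array and averaged over linkers. Arrays of the same protein sequence at different concentrations or buffers were also averaged together. Data originate from 3228 arrays in the Consortium for Functional Glycomics database, kept only where the protein sequence was available.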
# [2] = biological target: Gal(a1-3)Gal(b1-3)GlcNAc(b1-2)Man(a1-3)[Gal(a1-3)Gal(b1-3)GlcNAc(b1-2)Man(a1-6)]Man(b1-4)GlcNAc(b1-4)GlcNAc
# How it was run: as §1
# [3] = biological target: Gal(a1-3)Gal(b1-3)GlcNAc(b1-3)GalNAc
# How it was run: as §1
# [4] = biological target: Gal(a1-3)Gal(b1-3)GlcNAc(b1-6)GalNAc
# How it was run: as §1
# [5] = biological target: Gal(a1-3)Gal(b1-3)[Fuc(a1-4)]GlcNAc(b1-2)Man(a1-3)[Gal(a1-3)Gal(b1-3)[Fuc(a1-4)]GlcNAc(b1-2)Man(a1-6)]Man(b1-4)GlcNAc(b1-4)GlcNAc
# How it was run: as §1
# [6] = biological target: Gal(a1-3)Gal(b1-4)Glc
# How it was run: as §1
# [7] = biological target: Gal(a1-3)Gal(b1-4)GlcNAc
# How it was run: as §1
# [8] = biological target: Gal(a1-3)Gal(b1-4)GlcNAc(b1-2)Man
# How it was run: as §1
# [9] = biological target: Gal(a1-3)Gal(b1-4)GlcNAc(b1-2)Man(a1-3)[Gal(a1-3)Gal(b1-4)GlcNAc(b1-2)Man(a1-6)]Man(b1-4)GlcNAc(b1-4)GlcNAc
# How it was run: as §1
# [10] = biological target: Gal(a1-3)Gal(b1-4)GlcNAc(b1-3)GalNAc
# How it was run: as §1
# [11] = biological target: Gal(a1-3)Gal(b1-4)GlcNAc(b1-6)GalNAc
# How it was run: as §1
# [12] = biological target: Gal(a1-3)Gal(b1-4)[Fuc(a1-3)]GlcNAc
# How it was run: as §1
# [13] = biological target: Gal(a1-3)Gal(b1-4)[Fuc(a1-3)]GlcNAc(b1-2)Man(a1-3)[Gal(a1-3)Gal(b1-4)[Fuc(a1-3)]GlcNAc(b1-2)Man(a1-6)]Man(b1-4)GlcNAc(b1-4)GlcNAc
# How it was run: as §1
# [14] = biological target: Gal(a1-3)GalNAc
# How it was run: as §1
# [15] = biological target: Gal(a1-3)[Gal(a1-4)]Gal(b1-4)GlcNAc
# How it was run: as §1
# [16] = biological target: Gal(a1-4)Gal(b1-3)GlcNAc(b1-2)Man(a1-3)[Gal(a1-4)Gal(b1-3)GlcNAc(b1-2)Man(a1-6)]Man(b1-4)GlcNAc(b1-4)GlcNAc
# How it was run: as §1
# [17] = biological target: Gal(a1-4)Gal(b1-4)Glc
# How it was run: as §1
# [18] = biological target: Gal(a1-4)Gal(b1-4)GlcNAc
# How it was run: as §1
# [19] = biological target: Gal(a1-4)Gal(b1-4)GlcNAc(b1-2)Man(a1-3)[Gal(a1-4)Gal(b1-4)GlcNAc(b1-2)Man(a1-6)]Man(b1-4)GlcNAc(b1-4)GlcNAc
# How it was run: as §1
# [20] = biological target: Gal(a1-4)Gal(b1-4)GlcNAc(b1-3)Gal(b1-4)Glc
# How it was run: as §1
# [21] = biological target: Gal(a1-4)GlcNAc
# How it was run: as §1
# [22] = biological target: Gal(a1-6)Glc
# How it was run: as §1
# [23] = biological target: Gal(b1-2)Gal
# How it was run: as §1
# [24] = biological target: Gal(b1-3)Gal
# How it was run: as §1
# [25] = biological target: Gal(b1-3)Gal(b1-4)GlcNAc
# How it was run: as §1
# [26] = biological target: Gal(b1-3)Gal(b1-4)GlcNAc(b1-2)Man(a1-3)[Gal(b1-3)Gal(b1-4)GlcNAc(b1-2)Man(a1-6)]Man(b1-4)GlcNAc(b1-4)GlcNAc
# How it was run: as §1
# [27] = biological target: Gal(b1-3)GalNAc
# How it was run: as §1
# [28] = biological target: Gal(b1-3)GalNAc(a1-3)[Fuc(a1-2)]Gal(b1-4)Glc
# How it was run: as §1
# [29] = biological target: Gal(b1-3)GalNAc(a1-3)[Fuc(a1-2)]Gal(b1-4)GlcNAc
# How it was run: as §1
# [30] = biological target: Gal(b1-3)GalNAc(b1-3)Gal
# How it was run: as §1
# [31] = biological target: Gal(b1-3)GalNAc(b1-3)Gal(a1-4)Gal(b1-4)Glc
# How it was run: as §1
# [32] = biological target: Gal(b1-3)GalNAc(b1-4)Gal(b1-4)Glc
# How it was run: as §1
# [33] = biological target: Gal(b1-3)GalNAc(b1-4)[Neu5Ac(a2-3)]Gal(b1-4)Glc
# How it was run: as §1
# [34] = biological target: Gal(b1-3)GlcNAc
# How it was run: as §1
# [35] = biological target: Gal(b1-3)GlcNAc(a1-3)Gal(b1-4)GlcNAc
# How it was run: as §1
# [36] = biological target: Gal(b1-3)GlcNAc(a1-6)Gal(b1-4)GlcNAc
# How it was run: as §1
# [37] = biological target: Gal(b1-3)GlcNAc(b1-2)Man
# How it was run: as §1
binder,measurement,setting,value
"GST-Gap1 (Streptococcus parasanguinis), A1C3L5 (protein) MFYFVPSWYNGQRQWYYDTPWWFRVKNRMTFDDSVNQVKMFLQGQEEIGLMILNYQPQLRYFLHKQNIFGIYYWSFFDDIQNITRSYTKIIHLKDLNWPEGCEFLYSPFAVVVRLKGEIFAIVNYAEDGNLHSVSFQKNGKVTKDYIFDDRGFLSSILYYDIDERPLYQDYLNINGVWQVREFLKKENDPTPILMINDFSDQTFSKKYYNGWEELIKERLAIFQNNHVENEDVFVLASDTQHNQLVSSIFKEHRKIYSFFGNRFNLENLGQDRISINDATFLVVDTEKNEELLRKTCENLVFKSIPIVRLSPFDSRLRLGHSQTVKEQIIYFHIDNIELDELYSVIAIILELMTLHLDIELRIVTFRQDFQLDLLKTWIIDFIKTNHFEDLLFKQISEGENEIEDEGEIELSRIAMECFTNENQIIKCLDTARLVIDLGIEPDLYTQIASISAGIPQINRVSSDYVIHQKNGLVISDISKLSSAIEFYFDGLFNWNEALIYAVRKMSDYTSGKILKQWKGMLKKK",glycan array binding signal (z-score),[1],0.212
same,glycan array binding signal (z-score),[2],0.647
same,glycan array binding signal (z-score),[3],0.124
same,glycan array binding signal (z-score),[4],0.654
same,glycan array binding signal (z-score),[5],0.264
same,glycan array binding signal (z-score),[6],2.03
same,glycan array binding signal (z-score),[7],-0.312
same,glycan array binding signal (z-score),[8],-0.219
same,glycan array binding signal (z-score),[9],0.421
same,glycan array binding signal (z-score),[10],0.13
same,glycan array binding signal (z-score),[11],-1.74
same,glycan array binding signal (z-score),[12],0.06
same,glycan array binding signal (z-score),[13],0.577
same,glycan array binding signal (z-score),[14],-0.266
same,glycan array binding signal (z-score),[15],-0.075
same,glycan array binding signal (z-score),[16],0.314
same,glycan array binding signal (z-score),[17],-0.507
same,glycan array binding signal (z-score),[18],0.205
same,glycan array binding signal (z-score),[19],0.243
same,glycan array binding signal (z-score),[20],-0.321
same,glycan array binding signal (z-score),[21],0.216
same,glycan array binding signal (z-score),[22],-0.438
same,glycan array binding signal (z-score),[23],0.47
same,glycan array binding signal (z-score),[24],0.747
same,glycan array binding signal (z-score),[25],0.416
same,glycan array binding signal (z-score),[26],13.5
same,glycan array binding signal (z-score),[27],-0.397
same,glycan array binding signal (z-score),[28],-0.01
same,glycan array binding signal (z-score),[29],-0.511
same,glycan array binding signal (z-score),[30],-0.736
same,glycan array binding signal (z-score),[31],-0.565
same,glycan array binding signal (z-score),[32],0.476
same,glycan array binding signal (z-score),[33],-0.353
same,glycan array binding signal (z-score),[34],-0.046
same,glycan array binding signal (z-score),[35],0.253
same,glycan array binding signal (z-score),[36],-0.654
same,glycan array binding signal (z-score),[37],2.06

# 2 records picked at random from the list so far:
binder,measurement,setting,value
"GST-Gap1 (Streptococcus parasanguinis), A1C3L5 (protein) MFYFVPSWYNGQRQWYYDTPWWFRVKNRMTFDDSVNQVKMFLQGQEEIGLMILNYQPQLRYFLHKQNIFGIYYWSFFDDIQNITRSYTKIIHLKDLNWPEGCEFLYSPFAVVVRLKGEIFAIVNYAEDGNLHSVSFQKNGKVTKDYIFDDRGFLSSILYYDIDERPLYQDYLNINGVWQVREFLKKENDPTPILMINDFSDQTFSKKYYNGWEELIKERLAIFQNNHVENEDVFVLASDTQHNQLVSSIFKEHRKIYSFFGNRFNLENLGQDRISINDATFLVVDTEKNEELLRKTCENLVFKSIPIVRLSPFDSRLRLGHSQTVKEQIIYFHIDNIELDELYSVIAIILELMTLHLDIELRIVTFRQDFQLDLLKTWIIDFIKTNHFEDLLFKQISEGENEIEDEGEIELSRIAMECFTNENQIIKCLDTARLVIDLGIEPDLYTQIASISAGIPQINRVSSDYVIHQKNGLVISDISKLSSAIEFYFDGLFNWNEALIYAVRKMSDYTSGKILKQWKGMLKKK",glycan array binding signal (z-score),[7],-0.312
same,glycan array binding signal (z-score),[25],0.416
